Laboratory results published in article doi:10.1101/2021.03.12.434960.
These are yes or no findings as the source states them, for the method shown. Some results given as binding are weak or reduced against the parent protein; the word gives no strength.

Protein sequences, listed by entry. Tags and fused reporters are not part of them.
UniProt Q12840: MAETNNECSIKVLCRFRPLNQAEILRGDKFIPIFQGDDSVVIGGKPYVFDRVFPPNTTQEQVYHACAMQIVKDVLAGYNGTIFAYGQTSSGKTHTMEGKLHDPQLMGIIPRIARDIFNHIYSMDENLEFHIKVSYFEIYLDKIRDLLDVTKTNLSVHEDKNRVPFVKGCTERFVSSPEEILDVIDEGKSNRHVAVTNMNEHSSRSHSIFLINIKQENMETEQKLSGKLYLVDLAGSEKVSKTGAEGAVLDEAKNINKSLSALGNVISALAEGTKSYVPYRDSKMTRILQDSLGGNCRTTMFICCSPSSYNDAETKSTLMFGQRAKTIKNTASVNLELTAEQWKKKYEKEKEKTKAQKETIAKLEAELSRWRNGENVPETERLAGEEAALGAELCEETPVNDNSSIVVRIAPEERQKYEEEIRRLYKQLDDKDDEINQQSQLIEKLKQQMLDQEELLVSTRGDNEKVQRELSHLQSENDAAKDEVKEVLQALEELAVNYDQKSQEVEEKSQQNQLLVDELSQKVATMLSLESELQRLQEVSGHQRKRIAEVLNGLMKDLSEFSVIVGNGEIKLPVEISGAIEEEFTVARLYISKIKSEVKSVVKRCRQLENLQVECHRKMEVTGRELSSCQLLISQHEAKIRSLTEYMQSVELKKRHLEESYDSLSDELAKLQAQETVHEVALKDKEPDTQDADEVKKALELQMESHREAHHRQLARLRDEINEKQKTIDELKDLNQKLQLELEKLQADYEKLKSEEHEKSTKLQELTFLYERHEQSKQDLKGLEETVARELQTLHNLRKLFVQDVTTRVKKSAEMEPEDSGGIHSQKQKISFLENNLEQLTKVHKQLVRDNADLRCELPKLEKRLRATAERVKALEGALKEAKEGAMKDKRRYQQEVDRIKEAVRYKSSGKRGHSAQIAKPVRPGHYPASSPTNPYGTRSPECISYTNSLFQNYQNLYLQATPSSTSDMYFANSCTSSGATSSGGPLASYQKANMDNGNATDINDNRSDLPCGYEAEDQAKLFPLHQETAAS
UniProt Q07866: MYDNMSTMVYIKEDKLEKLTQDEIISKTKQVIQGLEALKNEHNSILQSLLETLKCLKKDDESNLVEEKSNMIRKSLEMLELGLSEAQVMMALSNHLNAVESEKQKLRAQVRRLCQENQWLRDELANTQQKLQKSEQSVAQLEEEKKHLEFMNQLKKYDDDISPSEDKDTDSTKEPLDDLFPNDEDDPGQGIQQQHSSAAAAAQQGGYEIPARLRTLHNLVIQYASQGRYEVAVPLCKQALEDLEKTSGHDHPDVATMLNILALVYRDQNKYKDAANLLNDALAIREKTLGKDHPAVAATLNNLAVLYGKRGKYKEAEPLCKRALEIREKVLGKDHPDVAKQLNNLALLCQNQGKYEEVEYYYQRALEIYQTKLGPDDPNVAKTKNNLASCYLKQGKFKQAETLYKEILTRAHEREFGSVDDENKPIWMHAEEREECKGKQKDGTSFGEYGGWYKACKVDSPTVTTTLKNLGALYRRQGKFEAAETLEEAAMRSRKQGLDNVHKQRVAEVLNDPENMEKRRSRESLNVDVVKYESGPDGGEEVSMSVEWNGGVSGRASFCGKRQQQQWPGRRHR

Molecular target: full-length human KIF5A, C-terminal mScarlet-StrepII (human) (UniProt Q12840)
Test: SEC-MALS

binding: binds
Substance: human KLC1 with N-terminal 6xHis-FLAG (co-expressed with KIF5) (from UniProt Q07866 1-573)
